Record: PubChem BioAssay AID1508597 (Cure First, 2020)
In all, the deposit lists about 2,100 reagents; shown is a random part of them. 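Calls flag viability under 80% in either arm, not effects specific to rucaparib; the reference for percent is not stated.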 Not given: the 100% reference.

Aim: 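Knock-downs altering ovarian cancer cell survival with or without PARP inhibitor rucaparib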 (primary screen)
Cell system: human ovarian carcinoma lines grown from tumours: OCI-P5x (papillary serous) and OCI-C5x (clear cell)
Knock-down reagent: siRNA pool against human genes, 1.25 pmol siRNA per well
Time to read-out: 72 h or 96 h, depending on the cell culture
Treatment: rucaparib 20 µM (about IC30) or vehicle, present until read-out
Measurement: 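ATP luminescence measured at 72 or 96 h according to the culture, then normalised and expressed as percent viability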
Scale: viability, normalised: higher = more viable cells remaining
Rule for the call: 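a well counts as a hit if its normalised viability is under 80 percent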
Meaning of the calls: active = viability under 80%; inactive = viability 80% or more

With ING2, rucaparib or vehicle Rucaparib, cell line OCI-C5x (clear cell), technical replicate 1, the entry reads viability, normalised (%) = 53.7; active. ING2, rucaparib or vehicle Rucaparib, cell line OCI-C5x (clear cell), technical replicate 2 showed viability, normalised (%) = 46.9; active. ING2, rucaparib or vehicle Rucaparib, cell line OCI-C5x (clear cell), technical replicate 3 scored viability, normalised (%) = 46; active. ING2, rucaparib or vehicle Rucaparib, cell line OCI-P5x (serous), technical replicate 1 scored viability, normalised (%) = 69.5; active. With ING2, rucaparib or vehicle Rucaparib, cell line OCI-P5x (serous), technical replicate 2, the values are viability, normalised (%) = 62.5; active. For ING2, rucaparib or vehicle Rucaparib, cell line OCI-P5x (serous), technical replicate 3 the deposit lists viability, normalised (%) = 76.1; active.

With ING2, rucaparib or vehicle Vehicle, cell line OCI-C5x (clear cell), technical replicate 1, the entry reads viability, normalised (%) = 72.1; active. With ING2, rucaparib or vehicle Vehicle, cell line OCI-C5x (clear cell), technical replicate 2, the entry reads viability, normalised (%) = 61.9; active. ING2, rucaparib or vehicle Vehicle, cell line OCI-C5x (clear cell), technical replicate 3 showed viability, normalised (%) = 49.2; active. ING2, rucaparib or vehicle Vehicle, cell line OCI-P5x (serous), technical replicate 1 showed viability, normalised (%) = 94.8; inactive. ING2, rucaparib or vehicle Vehicle, cell line OCI-P5x (serous), technical replicate 2 gave viability, normalised (%) = 80.7; inactive. For ING2, rucaparib or vehicle Vehicle, cell line OCI-P5x (serous), technical replicate 3 the deposit lists viability, normalised (%) = 105; inactive.
